Results are given in words; binding and its absence hold for the method and conditions named. Binding can be weak; no strength is given. For part of these data: In cells and extracts the contact can be indirect. For part of these data: Sequences can lack the tags named with a protein.
Columns and labels:
[1] = target: T1, Recombinant full length NANOG, purified and refolded (mouse) (UniProt Q80Z64); assay: native gel or EMSA
T1 sequence: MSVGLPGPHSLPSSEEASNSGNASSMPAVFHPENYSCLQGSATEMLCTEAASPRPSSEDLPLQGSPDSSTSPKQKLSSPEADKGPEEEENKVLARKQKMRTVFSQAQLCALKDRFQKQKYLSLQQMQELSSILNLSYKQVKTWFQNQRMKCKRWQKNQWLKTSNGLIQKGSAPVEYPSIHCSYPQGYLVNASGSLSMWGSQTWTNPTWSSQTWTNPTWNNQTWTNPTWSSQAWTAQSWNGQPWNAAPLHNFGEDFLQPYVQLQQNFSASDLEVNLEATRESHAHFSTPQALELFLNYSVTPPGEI

[2] = target: T2, full length His-tagged NANOG (mouse) (UniProt Q80Z64); assay: pull-down
T2 sequence: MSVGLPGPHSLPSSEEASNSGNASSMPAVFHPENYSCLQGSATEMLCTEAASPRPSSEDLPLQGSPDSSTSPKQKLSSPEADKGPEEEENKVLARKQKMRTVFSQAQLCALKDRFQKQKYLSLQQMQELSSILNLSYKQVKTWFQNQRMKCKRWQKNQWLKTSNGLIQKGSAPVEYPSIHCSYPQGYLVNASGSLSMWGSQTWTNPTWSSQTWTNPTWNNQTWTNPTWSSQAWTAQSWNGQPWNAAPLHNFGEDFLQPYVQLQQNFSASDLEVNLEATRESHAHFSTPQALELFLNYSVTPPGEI

[3] = target: GST-CTD (C-terminal domain of RNA Polymerase II) (mouse); assay: pull-down

Recombinant CTD expressed as a GST-fusion, purified (mouse) (domain or fragment)
binding [1]: binds

GST-CTD (C-terminal domain of RNA Polymerase II) (mouse) (domain or fragment)
binding [2]: binds

B1: full length His-tagged NANOG (protein, UniProt Q80Z64 1-305)
chain: MSVGLPGPHSLPSSEEASNSGNASSMPAVFHPENYSCLQGSATEMLCTEAASPRPSSEDLPLQGSPDSSTSPKQKLSSPEADKGPEEEENKVLARKQKMRTVFSQAQLCALKDRFQKQKYLSLQQMQELSSILNLSYKQVKTWFQNQRMKCKRWQKNQWLKTSNGLIQKGSAPVEYPSIHCSYPQGYLVNASGSLSMWGSQTWTNPTWSSQTWTNPTWNNQTWTNPTWSSQAWTAQSWNGQPWNAAPLHNFGEDFLQPYVQLQQNFSASDLEVNLEATRESHAHFSTPQALELFLNYSVTPPGEI
binding [3]: binds

Reference: paper doi:10.1101/2025.11.27.690710
